Test results published in the supplement of paper PMC10849652.
Some of the results follow.

The chains behind the UniProt entries cited, without tags or fusion partners. Where a name states a change or a piece, a line headed by the entry shows the natural chain unless it says otherwise.
UniProt Q9H1C7: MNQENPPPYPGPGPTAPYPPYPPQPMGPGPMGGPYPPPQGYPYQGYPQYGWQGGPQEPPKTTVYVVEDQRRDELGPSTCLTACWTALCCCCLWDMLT
UniProt Q6PI48: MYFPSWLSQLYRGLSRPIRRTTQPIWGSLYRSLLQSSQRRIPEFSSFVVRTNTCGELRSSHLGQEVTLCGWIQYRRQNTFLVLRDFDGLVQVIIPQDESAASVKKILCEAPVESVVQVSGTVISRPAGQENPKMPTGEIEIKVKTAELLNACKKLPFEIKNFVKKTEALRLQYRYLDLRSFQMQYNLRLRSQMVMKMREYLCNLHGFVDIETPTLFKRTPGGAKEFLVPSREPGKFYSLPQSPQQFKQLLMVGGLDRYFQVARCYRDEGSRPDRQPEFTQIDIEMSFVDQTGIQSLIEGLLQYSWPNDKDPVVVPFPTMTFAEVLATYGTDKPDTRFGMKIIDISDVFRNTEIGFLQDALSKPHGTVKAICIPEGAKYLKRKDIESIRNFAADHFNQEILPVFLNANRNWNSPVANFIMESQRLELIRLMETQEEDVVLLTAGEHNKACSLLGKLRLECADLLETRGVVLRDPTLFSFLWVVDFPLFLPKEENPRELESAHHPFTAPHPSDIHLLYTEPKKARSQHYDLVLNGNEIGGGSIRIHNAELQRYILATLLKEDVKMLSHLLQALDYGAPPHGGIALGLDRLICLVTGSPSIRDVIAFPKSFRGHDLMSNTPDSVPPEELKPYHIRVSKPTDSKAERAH
UniProt Q8WUE5: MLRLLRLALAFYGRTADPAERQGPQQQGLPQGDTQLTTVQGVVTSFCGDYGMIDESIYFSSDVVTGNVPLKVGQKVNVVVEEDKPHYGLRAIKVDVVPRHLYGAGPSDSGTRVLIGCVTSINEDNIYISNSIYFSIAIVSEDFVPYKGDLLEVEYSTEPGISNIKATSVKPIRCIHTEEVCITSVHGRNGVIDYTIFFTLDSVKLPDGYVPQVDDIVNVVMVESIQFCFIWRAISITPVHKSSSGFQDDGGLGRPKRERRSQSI
UniProt Q8TEB1, whole entry, looked up: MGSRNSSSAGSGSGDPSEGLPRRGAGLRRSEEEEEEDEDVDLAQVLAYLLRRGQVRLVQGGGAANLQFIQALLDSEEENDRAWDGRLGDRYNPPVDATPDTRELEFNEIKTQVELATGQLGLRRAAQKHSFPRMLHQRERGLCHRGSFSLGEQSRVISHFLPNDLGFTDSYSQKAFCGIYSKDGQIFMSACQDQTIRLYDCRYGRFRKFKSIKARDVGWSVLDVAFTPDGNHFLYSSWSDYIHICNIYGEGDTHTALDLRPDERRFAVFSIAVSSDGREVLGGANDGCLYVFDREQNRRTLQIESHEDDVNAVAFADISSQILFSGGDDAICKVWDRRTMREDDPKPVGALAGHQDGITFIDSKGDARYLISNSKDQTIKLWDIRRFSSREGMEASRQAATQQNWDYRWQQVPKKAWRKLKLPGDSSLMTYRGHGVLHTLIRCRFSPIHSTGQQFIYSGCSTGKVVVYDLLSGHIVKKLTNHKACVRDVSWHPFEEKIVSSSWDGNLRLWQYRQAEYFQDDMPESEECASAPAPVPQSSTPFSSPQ
UniProt P61962: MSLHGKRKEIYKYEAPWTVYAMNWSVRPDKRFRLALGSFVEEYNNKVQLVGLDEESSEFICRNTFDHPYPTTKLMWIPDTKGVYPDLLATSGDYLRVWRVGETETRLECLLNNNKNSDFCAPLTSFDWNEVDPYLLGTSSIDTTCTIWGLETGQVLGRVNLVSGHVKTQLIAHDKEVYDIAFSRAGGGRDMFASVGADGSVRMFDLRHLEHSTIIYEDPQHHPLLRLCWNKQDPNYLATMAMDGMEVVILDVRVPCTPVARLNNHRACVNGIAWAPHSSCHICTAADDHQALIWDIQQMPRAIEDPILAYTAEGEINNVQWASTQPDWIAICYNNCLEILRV
UniProt P04080: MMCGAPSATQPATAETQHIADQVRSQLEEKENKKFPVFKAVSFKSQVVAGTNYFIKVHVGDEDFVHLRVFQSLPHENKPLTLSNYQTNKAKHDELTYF
UniProt Q5TAQ9: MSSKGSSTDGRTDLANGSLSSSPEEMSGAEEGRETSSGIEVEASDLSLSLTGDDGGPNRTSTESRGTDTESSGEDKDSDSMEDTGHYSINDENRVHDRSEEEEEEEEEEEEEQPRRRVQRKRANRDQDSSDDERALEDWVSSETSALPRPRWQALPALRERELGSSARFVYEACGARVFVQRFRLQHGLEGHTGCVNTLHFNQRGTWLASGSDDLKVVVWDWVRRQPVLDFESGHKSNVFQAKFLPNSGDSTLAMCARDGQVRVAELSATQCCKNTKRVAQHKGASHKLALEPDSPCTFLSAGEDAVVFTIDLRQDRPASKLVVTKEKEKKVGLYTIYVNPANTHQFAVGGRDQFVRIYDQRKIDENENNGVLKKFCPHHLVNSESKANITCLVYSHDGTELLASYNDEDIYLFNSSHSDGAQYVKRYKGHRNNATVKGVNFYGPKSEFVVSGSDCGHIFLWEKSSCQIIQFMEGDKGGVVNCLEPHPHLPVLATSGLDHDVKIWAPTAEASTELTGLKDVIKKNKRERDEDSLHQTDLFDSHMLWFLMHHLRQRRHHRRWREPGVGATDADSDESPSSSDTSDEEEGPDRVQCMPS
UniProt Q9BQA9: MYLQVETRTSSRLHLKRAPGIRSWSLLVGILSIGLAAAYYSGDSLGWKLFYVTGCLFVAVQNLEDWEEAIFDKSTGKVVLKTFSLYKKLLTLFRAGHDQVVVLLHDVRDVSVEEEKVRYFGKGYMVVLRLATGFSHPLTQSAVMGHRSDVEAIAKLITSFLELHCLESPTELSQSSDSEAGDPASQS
UniProt Q9NRF8: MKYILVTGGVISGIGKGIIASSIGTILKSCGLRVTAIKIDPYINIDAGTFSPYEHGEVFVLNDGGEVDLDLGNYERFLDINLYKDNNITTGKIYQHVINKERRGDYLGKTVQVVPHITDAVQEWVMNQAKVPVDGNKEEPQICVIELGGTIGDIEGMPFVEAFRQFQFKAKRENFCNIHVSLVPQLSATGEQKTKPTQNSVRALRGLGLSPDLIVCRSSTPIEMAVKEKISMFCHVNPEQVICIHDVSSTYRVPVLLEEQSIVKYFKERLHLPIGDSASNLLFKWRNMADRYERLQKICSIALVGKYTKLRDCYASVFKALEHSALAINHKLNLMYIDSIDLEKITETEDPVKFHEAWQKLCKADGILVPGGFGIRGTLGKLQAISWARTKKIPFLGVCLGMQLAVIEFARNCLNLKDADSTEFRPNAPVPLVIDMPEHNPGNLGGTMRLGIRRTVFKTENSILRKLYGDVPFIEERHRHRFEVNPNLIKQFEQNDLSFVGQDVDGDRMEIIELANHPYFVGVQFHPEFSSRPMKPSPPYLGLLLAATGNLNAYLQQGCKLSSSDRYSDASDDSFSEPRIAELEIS
UniProt P61803: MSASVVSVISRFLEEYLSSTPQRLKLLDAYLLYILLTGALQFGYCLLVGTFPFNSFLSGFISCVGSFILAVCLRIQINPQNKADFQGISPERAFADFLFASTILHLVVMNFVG
UniProt P07108: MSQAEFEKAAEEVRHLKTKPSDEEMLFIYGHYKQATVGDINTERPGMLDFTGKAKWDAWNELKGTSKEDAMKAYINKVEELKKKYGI
UniProt Q66K64, whole entry, looked up: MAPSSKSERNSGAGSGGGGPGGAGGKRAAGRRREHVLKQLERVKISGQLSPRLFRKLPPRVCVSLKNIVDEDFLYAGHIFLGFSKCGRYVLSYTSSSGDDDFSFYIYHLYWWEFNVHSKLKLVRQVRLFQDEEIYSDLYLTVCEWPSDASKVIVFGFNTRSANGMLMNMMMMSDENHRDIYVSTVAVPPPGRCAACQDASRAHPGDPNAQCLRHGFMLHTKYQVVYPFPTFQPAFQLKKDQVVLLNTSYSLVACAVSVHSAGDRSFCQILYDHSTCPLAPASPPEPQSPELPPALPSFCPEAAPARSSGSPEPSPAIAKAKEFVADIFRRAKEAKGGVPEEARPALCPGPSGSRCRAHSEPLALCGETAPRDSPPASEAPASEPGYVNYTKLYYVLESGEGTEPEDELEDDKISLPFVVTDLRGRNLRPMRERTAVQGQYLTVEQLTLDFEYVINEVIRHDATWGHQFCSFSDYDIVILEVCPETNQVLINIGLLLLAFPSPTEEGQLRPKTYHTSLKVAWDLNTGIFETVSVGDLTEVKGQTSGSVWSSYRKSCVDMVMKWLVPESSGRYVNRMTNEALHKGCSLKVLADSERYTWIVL
UniProt P35221: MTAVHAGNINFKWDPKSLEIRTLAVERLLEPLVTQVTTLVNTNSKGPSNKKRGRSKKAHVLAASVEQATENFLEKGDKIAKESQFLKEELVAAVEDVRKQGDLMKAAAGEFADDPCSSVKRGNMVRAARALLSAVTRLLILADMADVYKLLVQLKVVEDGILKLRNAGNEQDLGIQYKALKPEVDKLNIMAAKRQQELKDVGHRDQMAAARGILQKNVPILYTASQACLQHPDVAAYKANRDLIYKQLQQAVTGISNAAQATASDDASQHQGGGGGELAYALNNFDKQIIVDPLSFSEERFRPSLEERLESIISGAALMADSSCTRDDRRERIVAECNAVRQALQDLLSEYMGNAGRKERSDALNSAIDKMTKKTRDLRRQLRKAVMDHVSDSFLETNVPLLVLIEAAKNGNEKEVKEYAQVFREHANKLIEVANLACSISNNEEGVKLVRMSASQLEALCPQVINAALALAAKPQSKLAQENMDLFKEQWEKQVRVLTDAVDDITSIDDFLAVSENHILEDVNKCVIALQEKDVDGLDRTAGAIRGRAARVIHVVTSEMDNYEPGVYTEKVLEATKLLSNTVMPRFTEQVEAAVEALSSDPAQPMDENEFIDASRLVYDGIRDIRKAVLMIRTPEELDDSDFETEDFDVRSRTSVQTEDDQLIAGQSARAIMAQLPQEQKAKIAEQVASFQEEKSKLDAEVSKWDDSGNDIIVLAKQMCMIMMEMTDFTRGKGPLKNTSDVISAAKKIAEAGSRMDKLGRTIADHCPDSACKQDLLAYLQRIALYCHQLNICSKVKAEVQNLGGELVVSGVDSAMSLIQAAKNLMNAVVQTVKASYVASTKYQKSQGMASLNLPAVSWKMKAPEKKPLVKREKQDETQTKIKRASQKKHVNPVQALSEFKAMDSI
UniProt P08574: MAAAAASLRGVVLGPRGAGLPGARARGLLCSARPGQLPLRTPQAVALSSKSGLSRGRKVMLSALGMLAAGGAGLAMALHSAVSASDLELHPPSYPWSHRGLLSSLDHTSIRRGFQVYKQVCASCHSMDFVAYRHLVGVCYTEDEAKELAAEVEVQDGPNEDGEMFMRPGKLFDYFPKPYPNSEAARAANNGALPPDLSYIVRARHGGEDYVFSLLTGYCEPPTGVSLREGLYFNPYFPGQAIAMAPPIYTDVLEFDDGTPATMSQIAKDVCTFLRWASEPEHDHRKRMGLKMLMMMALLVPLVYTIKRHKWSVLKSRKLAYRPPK
UniProt Q2VPK5: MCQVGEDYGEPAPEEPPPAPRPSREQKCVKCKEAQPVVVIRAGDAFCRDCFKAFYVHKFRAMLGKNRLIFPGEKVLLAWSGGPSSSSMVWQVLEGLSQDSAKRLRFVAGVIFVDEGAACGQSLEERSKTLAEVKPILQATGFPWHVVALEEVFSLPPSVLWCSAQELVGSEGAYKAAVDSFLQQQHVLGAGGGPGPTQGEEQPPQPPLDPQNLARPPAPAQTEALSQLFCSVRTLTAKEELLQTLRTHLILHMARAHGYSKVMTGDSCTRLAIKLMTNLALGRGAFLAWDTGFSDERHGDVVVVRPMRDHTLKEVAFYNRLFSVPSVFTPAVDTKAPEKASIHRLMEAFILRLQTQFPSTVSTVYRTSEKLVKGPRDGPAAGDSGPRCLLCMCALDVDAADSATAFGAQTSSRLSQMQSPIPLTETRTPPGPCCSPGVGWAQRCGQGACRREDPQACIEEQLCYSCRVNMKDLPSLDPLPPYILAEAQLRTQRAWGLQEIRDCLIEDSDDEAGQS

Columns and labels:
Assay in all cases: log2 fold change, soluble protein after heating vs DMSO (PISA); higher = thermal stabilisation; K562 cells, 10 uM, 30 min; active = over 0.2 and 3.5 SD of the protein, either way, in both replicates (recomputed)
saracatinib = compound: CN1CCN(CCOc2cc(OC3CCOCC3)c3c(Nc4c(Cl)ccc5c4OCO5)ncnc3c2)CC1 [saracatinib]
Procedure, shortened: (§1)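 K562 cells at 2×10^6 cells/mL were treated for 30 min with 10 μM compound, and aliquots were heated for 3 min over 48°C-58°C before pooling. Extraction used PBS with 0.5% NP-40 at 4°C, and soluble protein was the supernatant after 21,000xg for 90 min, measured by TMTpro 16plex LC-MS/MS with channel sums equalised. Thermal stability values, relative to control samples and from duplicates, are log2 fold changes.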

sotrastaurin = compound: CN1CCN(c2nc(C3=C(c4c[nH]c5ccccc45)C(=O)NC3=O)c3ccccc3n2)CC1 [sotrastaurin]
Procedure, shortened: as §1

alvocidib = compound: CN1CC[C@H](c2c(O)cc(O)c3c(=O)cc(-c4ccccc4Cl)oc23)[C@H](O)C1 [alvocidib]
Procedure, shortened: as §1

Tubastatin A = compound: CN1CCc2c(c3ccccc3n2Cc2ccc(C(=O)NO)cc2)C1 [Tubastatin A]
Procedure, shortened: as §1

[1] = compound: CNC(=O)C1=CC=CC=C1NC2=NC(=NC=C2Cl)NC3=C(C=C(C=C3)N4CCOCC4)OC
Procedure, shortened: as §1

defactinib = compound: CNC(=O)c1ccc(Nc2ncc(C(F)(F)F)c(NCc3nccnc3N(C)S(C)(=O)=O)n2)cc1 [defactinib]
Procedure, shortened: as §1

rucaparib = compound: CNCc1ccc(-c2[nH]c3cc(F)cc4c3c2CCNC4=O)cc1 [rucaparib]
Procedure, shortened: as §1

[2] = compound: CNc1nc(-c2ccc3c(N)n[nH]c3c2)cc(N2C[C@@H](C(=O)NC3CCCCC3)CC[C@H]2C)n1
Procedure, shortened: as §1

encorafenib = compound: COC(=O)N[C@@H](C)CNc1nccc(-c2cn(C(C)C)nc2-c2cc(Cl)cc(NS(C)(=O)=O)c2F)n1 [encorafenib]
Procedure, shortened: as §1

[3] = compound: COC(=O)[C@H](CCSC)NC(=O)C1=C(C=C(C=C1)NC[C@H](CS)N)C2=CC=CC=C2
Procedure, shortened: as §1

[4] = compound: COC1=CC=C(C=C1)CN2C=CC3=C2C=C(C=C3)C(=O)NO
Procedure, shortened: as §1

filanesib = compound: CON(C)C(=O)N1N=C(c2cc(F)ccc2F)S[C@@]1(CCCN)c1ccccc1 [filanesib]
Procedure, shortened: as §1

zotarolimus = compound: CO[C@H]1C[C@@H]2CC[C@@H](C)[C@@](O)(O2)C(=O)C(=O)N2CCCC[C@H]2C(=O)O[C@H]([C@H](C)C[C@@H]2CC[C@H](n3cnnn3)[C@H](OC)C2)CC(=O)[C@H](C)/C=C(\C)[C@@H](O)[C@@H](OC)C(=O)[C@H](C)C[C@H](C)/C=C/C=C/C=C/1C [zotarolimus]
Procedure, shortened: as §1

idasanutlin = compound: COc1cc(C(=O)O)ccc1NC(=O)[C@@H]1N[C@@H](CC(C)(C)C)[C@](C#N)(c2ccc(Cl)cc2F)[C@H]1c1cccc(Cl)c1F [idasanutlin]
Procedure, shortened: as §1

alisertib = compound: COc1cc(Nc2ncc3c(n2)-c2ccc(Cl)cc2C(c2c(F)cccc2OC)=NC3)ccc1C(=O)O [alisertib]
Procedure, shortened: as §1

[5] = compound: COc1cc2nc(-c3cc(F)ccc3O)nc(N[C@@H]3CNC[C@H]3C(C)(C)O)c2cc1OC
Procedure, shortened: as §1

gefitinib = compound: COc1cc2ncnc(Nc3ccc(F)c(Cl)c3)c2cc1OCCCN1CCOCC1 [gefitinib]
Procedure, shortened: as §1

[6] = compound: COc1cccc2cc(-c3nc([C@H]4CC[C@H](C(=O)O)CC4)n4ncnc(N)c34)[nH]c12
Procedure, shortened: as §1

lapatinib = compound: CS(=O)(=O)CCNCc1ccc(-c2ccc3ncnc(Nc4ccc(OCc5cccc(F)c5)c(Cl)c4)c3c2)o1 [lapatinib]
Procedure, shortened: as §1

pictilisib = compound: CS(=O)(=O)N1CCN(Cc2cc3nc(-c4cccc5[nH]ncc45)nc(N4CCOCC4)c3s2)CC1 [pictilisib]
Procedure, shortened: as §1

Measured: log2 fold change

CUL4B (UniProt K4DI93)
inactive: saracatinib 0.051 | sotrastaurin 0.006 | alvocidib -0.082 | Tubastatin A -0.002 | [1] 0.001 | defactinib -0.005 | rucaparib -0.059 | [2] -0.005 | encorafenib 0.002 | [3] -0.009 | [4] -0.038 | filanesib -0.044 | zotarolimus 0.043 | idasanutlin -0.085 | alisertib -0.026 | [5] 0 | gefitinib 0.018 | [6] 0.012 | lapatinib -0.027 | pictilisib 0.036

CYSTM1 (UniProt Q9H1C7)
inactive: saracatinib 0.071 | sotrastaurin -0.031 | alvocidib 0.051 | Tubastatin A -0.033 | [1] -0.019 | defactinib -0.008 | rucaparib 0.116 | [2] -0.144 | encorafenib -0.038 | [3] 0.12 | [4] 0.047 | filanesib -0.005 | zotarolimus -0.15 | idasanutlin 0.231 | alisertib 0.05 | [5] -0.085 | gefitinib 0.115 | [6] 0 | lapatinib -0.066

DARS2 (UniProt Q6PI48)
inactive: saracatinib 0.04 | sotrastaurin 0.021 | alvocidib 0.059 | Tubastatin A -0.022 | [1] 0.096 | defactinib 0.005 | rucaparib -0.017 | [2] -0.067 | encorafenib 0.018 | [3] -0.013 | [4] 0.031 | filanesib -0.023 | zotarolimus -0.022 | idasanutlin -0.021 | alisertib -0.068 | [5] -0.082 | gefitinib 0.004 | [6] 0.023 | lapatinib 0.031 | pictilisib -0.015

CT55 (UniProt Q8WUE5)
inactive: saracatinib -0.08 | sotrastaurin -0.041 | alvocidib -0.051 | Tubastatin A 0.017 | [1] -0.02 | defactinib -0.073 | rucaparib -0.01 | [2] 0.003 | encorafenib 0.032 | [3] 0.02 | [4] -0.061 | filanesib 0.013 | zotarolimus 0.026 | idasanutlin -0.012 | alisertib 0 | [5] 0.013 | gefitinib 0.065 | [6] 0.044 | lapatinib 0.017 | pictilisib 0.008

DCAF11 (UniProt Q8TEB1)
inactive: saracatinib 0.042 | sotrastaurin 0.033 | alvocidib 0.005 | Tubastatin A 0.055 | [1] -0.037 | defactinib -0.017 | rucaparib 0.023 | [2] -0.032 | encorafenib 0 | [3] -0.044 | [4] 0.015 | filanesib -0.108 | zotarolimus -0.01 | idasanutlin -0.007 | alisertib -0.054 | [5] 0.032 | gefitinib -0.009 | [6] 0.049 | lapatinib 0.016 | pictilisib 0.052

DCAF7 (UniProt P61962)
inactive: saracatinib -0.02 | sotrastaurin 0.034 | alvocidib 0.11 | Tubastatin A 0.059 | [1] -0.105 | defactinib -0.039 | rucaparib -0.002 | [2] 0.019 | encorafenib -0.009 | [3] 0.019 | [4] -0.042 | filanesib -0.023 | zotarolimus -0.028 | idasanutlin 0.102 | alisertib -0.056 | [5] 0.038 | gefitinib 0.025 | [6] 0.02 | lapatinib 0.002 | pictilisib 0.03

CSTB (UniProt P04080)
inactive: saracatinib -0.017 | sotrastaurin -0.05 | alvocidib -0.024 | Tubastatin A -0.004 | [1] 0.013 | defactinib -0.039 | rucaparib -0.1 | [2] 0.016 | encorafenib 0.023 | [3] 0.006 | [4] 0.03 | filanesib -0.006 | zotarolimus -0.018 | idasanutlin 0.008 | alisertib 0.033 | [5] -0.064 | gefitinib -0.029 | [6] 0.127 | lapatinib -0.111 | pictilisib -0.092

DCAF8 (UniProt Q5TAQ9)
inactive: saracatinib 0.019 | sotrastaurin 0.001 | alvocidib -0.053 | Tubastatin A 0 | [1] 0.001 | defactinib -0.085 | rucaparib 0.024 | [2] -0.018 | encorafenib 0.01 | [3] 0.055 | [4] -0.043 | filanesib 0.006 | zotarolimus 0.034 | idasanutlin 0 | alisertib -0.049 | [5] -0.004 | gefitinib -0.027 | [6] 0.011 | lapatinib 0.019 | pictilisib 0.062

CYBC1 (UniProt Q9BQA9)
inactive: saracatinib 0.091 | sotrastaurin 0.062 | alvocidib 0.024 | Tubastatin A -0.026 | [1] -0.035 | defactinib -0.015 | rucaparib -0.128 | [2] -0.02 | encorafenib -0.002 | [3] 0.029 | [4] -0.066 | filanesib -0.097 | zotarolimus -0.032 | idasanutlin -0.04 | alisertib -0.062 | [5] -0.046 | gefitinib 0.014 | [6] 0.134 | lapatinib -0.087 | pictilisib 0.045

CTPS2 (UniProt Q9NRF8)
inactive: saracatinib 0.053 | sotrastaurin 0.093 | alvocidib -0.014 | Tubastatin A -0.028 | [1] -0.022 | defactinib -0.003 | rucaparib -0.059 | [2] -0.026 | encorafenib -0.008 | [3] 0.01 | [4] 0.027 | filanesib 0 | zotarolimus 0.015 | idasanutlin -0.016 | alisertib -0.019 | [5] 0.001 | gefitinib 0.003 | [6] 0.071 | lapatinib 0.024 | pictilisib -0.006

DAD1 (UniProt P61803)
inactive: saracatinib 0.042 | sotrastaurin 0.025 | alvocidib 0.064 | Tubastatin A -0.075 | [1] -0.046 | defactinib -0.119 | rucaparib -0.031 | [2] -0.217 | encorafenib -0.085 | [3] 0.167 | [4] 0.057 | filanesib -0.042 | zotarolimus -0.147 | idasanutlin 0.088 | alisertib 0.026 | [5] 0.012 | gefitinib 0.061 | [6] -0.193 | lapatinib -0.058

Taken from the results shown (two entries):
CSTB (UniProt P04080)
inactive: saracatinib -0.017 | sotrastaurin -0.05 | alvocidib -0.024 | Tubastatin A -0.004 | [1] 0.013 | defactinib -0.039 | rucaparib -0.1 | [2] 0.016 | encorafenib 0.023 | [3] 0.006 | [4] 0.03 | filanesib -0.006 | zotarolimus -0.018 | idasanutlin 0.008 | alisertib 0.033 | [5] -0.064 | gefitinib -0.029 | [6] 0.127 | lapatinib -0.111 | pictilisib -0.092

DCAF8 (UniProt Q5TAQ9)
inactive: saracatinib 0.019 | sotrastaurin 0.001 | alvocidib -0.053 | Tubastatin A 0 | [1] 0.001 | defactinib -0.085 | rucaparib 0.024 | [2] -0.018 | encorafenib 0.01 | [3] 0.055 | [4] -0.043 | filanesib 0.006 | zotarolimus 0.034 | idasanutlin 0 | alisertib -0.049 | [5] -0.004 | gefitinib -0.027 | [6] 0.011 | lapatinib 0.019 | pictilisib 0.062

Remaining list, next part.

DBI isoform 5 (UniProt P07108)
inactive: saracatinib -0.051 | sotrastaurin 0.05 | alvocidib -0.032 | Tubastatin A 0.033 | [1] -0.005 | defactinib -0.076 | rucaparib -0.014 | [2] 0.04 | encorafenib -0.027 | [3] 0.057 | [4] -0.043 | filanesib 0.007 | zotarolimus 0.058 | idasanutlin 0.069 | alisertib -0.038 | [5] -0.129 | gefitinib 0.004 | [6] 0.063 | lapatinib -0.081 | pictilisib 0.079

DCAF15 (UniProt Q66K64)
inactive: saracatinib 0.034 | sotrastaurin 0.098 | alvocidib -0.086 | Tubastatin A 0.057 | [1] 0.02 | defactinib -0.05 | rucaparib -0.202 | [2] -0.25 | encorafenib -0.03 | [3] -0.108 | [4] -0.01 | filanesib -0.014 | zotarolimus 0.053 | idasanutlin -0.027 | alisertib -0.07 | [5] 0.094 | gefitinib 0.013 | [6] 0.169 | lapatinib -0.005

CTNNA1 isoform 2 (UniProt P35221)
inactive: saracatinib 0.042 | sotrastaurin 0.012 | alvocidib -0.02 | Tubastatin A 0.05 | [1] -0.003 | defactinib -0.038 | rucaparib -0.076 | [2] -0.012 | encorafenib -0.002 | [3] 0.015 | [4] 0.021 | filanesib -0.011 | zotarolimus -0.016 | idasanutlin -0.057 | alisertib 0.062 | [5] -0.001 | gefitinib -0.008 | [6] 0.004 | lapatinib -0.005 | pictilisib -0.052

CYC1 (UniProt P08574)
inactive: saracatinib 0 | sotrastaurin 0.015 | alvocidib -0.021 | Tubastatin A -0.022 | [1] -0.012 | defactinib -0.016 | rucaparib -0.032 | [2] -0.009 | encorafenib 0.003 | [3] 0.024 | [4] -0.037 | filanesib -0.03 | zotarolimus -0.001 | idasanutlin -0.015 | alisertib -0.038 | [5] 0.013 | gefitinib -0.056 | [6] 0.009 | lapatinib -0.061 | pictilisib 0.08

CTU2 (UniProt Q2VPK5)
inactive: saracatinib 0.019 | sotrastaurin 0.062 | alvocidib -0.047 | Tubastatin A -0.038 | [1] 0.003 | defactinib -0.07 | rucaparib -0.031 | [2] 0.015 | encorafenib -0.018 | [3] 0.064 | [4] -0.007 | filanesib -0.115 | zotarolimus 0.014 | idasanutlin -0.102 | alisertib -0.092 | [5] -0.035 | gefitinib -0.009 | [6] 0.044 | lapatinib -0.029 | pictilisib 0.019
